PubChem BioAssay AID1224831 | NIAID – 2016

Screen: 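Retesting screen hits on the TLR4-driven TNF response with six separate siRNAs each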 (follow-up of hits)
System: human THP-1 B5 monocytic leukaemia cells carrying a TNF promoter luciferase reporter, made macrophage-like with PMA
Knock-down reagent: single siRNA against human genes, 50 nM
Duration: about 68 h of knock-down, then 4 h LPS
Challenge: LPS (Salmonella minnesota, TLR-grade) at 10 ng/ml for 4 h; PMA 5 ng/ml present during knock-down
Measurement: 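TNF promoter reporter read as dual luciferase ratio after 4 h LPS, normalised per plate to its median, given as replicate mean robust z-score per siRNA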
Direction: TNF reporter z-score: higher = stronger LPS-induced TNF reporter signal; z-score, median over gene's siRNAs: higher = stronger TNF reporter signal across the gene's siRNAs
Call rule: 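Active when the replicate mean z-score is about -1 or lower, or about 1.5 or higher; lowered and raised TNF reporter signal both count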
Meaning of the calls: active = changed TNF reporter (either direction); inactive = little change
Here is one part, drawn at random, of about 3,500 reagents. 731 of all reagents (21%) count as active. 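Active means either lowered or raised reporter signal; the gene-median score did not drive the per-siRNA calls.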 The numbers tell different reagents against one gene apart. Reagent sequences are not shown.

Target gene,reagent no.,"TNF reporter z-score, replicate mean","z-score, median over gene's siRNAs",call
GATA3 (GATA binding protein 3),1,0.33,-0.345,inactive
GATA3 (GATA binding protein 3),2,-0.88,-0.345,inactive
GATA3 (GATA binding protein 3),3,-0.25,-0.345,inactive
GATA3 (GATA binding protein 3),4,-0.47,-0.345,inactive
GATA3 (GATA binding protein 3),5,0.27,-0.345,inactive
GATA3 (GATA binding protein 3),6,-0.44,-0.345,inactive
KRTAP3-1 (keratin associated protein 3-1),1,0.3,0.26,inactive
KRTAP3-1 (keratin associated protein 3-1),2,-0.12,0.26,inactive
KRTAP3-1 (keratin associated protein 3-1),3,0.45,0.26,inactive
KRTAP3-1 (keratin associated protein 3-1),4,-0.39,0.26,inactive
KRTAP3-1 (keratin associated protein 3-1),5,1.22,0.26,inactive
KRTAP3-1 (keratin associated protein 3-1),6,0.22,0.26,inactive
ANXA9 (annexin A9),1,0.05,0.035,inactive
ANXA9 (annexin A9),2,0.02,0.035,inactive
ANXA9 (annexin A9),3,-0.11,0.035,inactive
ANXA9 (annexin A9),4,0.3,0.035,inactive
ANXA9 (annexin A9),5,-0.31,0.035,inactive
ANXA9 (annexin A9),6,0.65,0.035,inactive
SLC25A6,1,0.6,1,inactive
SLC25A6,2,1.66,1,active
SLC25A6,3,0.9,1,inactive
SLC25A6,4,1.2,1,inactive
SLC25A6,5,0.23,1,inactive
SLC25A6,6,1.11,1,inactive
LECT2 (leukocyte cell derived chemotaxin 2),1,-0.07,0.1,inactive
LECT2 (leukocyte cell derived chemotaxin 2),2,-0.62,0.1,inactive
LECT2 (leukocyte cell derived chemotaxin 2),3,1.18,0.1,inactive
LECT2 (leukocyte cell derived chemotaxin 2),4,0.96,0.1,inactive
LECT2 (leukocyte cell derived chemotaxin 2),5,-1.18,0.1,active
LECT2 (leukocyte cell derived chemotaxin 2),6,0.27,0.1,inactive

The list goes on (3 carried over from the part before).
Target gene,reagent no.,"TNF reporter z-score, replicate mean","z-score, median over gene's siRNAs",call
LECT2 (leukocyte cell derived chemotaxin 2),4,0.96,0.1,inactive
LECT2 (leukocyte cell derived chemotaxin 2),5,-1.18,0.1,active
LECT2 (leukocyte cell derived chemotaxin 2),6,0.27,0.1,inactive
ARL14EP (ARF like GTPase 14 effector protein),1,-0.12,-0.015,inactive
ARL14EP (ARF like GTPase 14 effector protein),2,-0.57,-0.015,inactive
ARL14EP (ARF like GTPase 14 effector protein),3,0.16,-0.015,inactive
ARL14EP (ARF like GTPase 14 effector protein),4,0.43,-0.015,inactive
ARL14EP (ARF like GTPase 14 effector protein),5,-0.17,-0.015,inactive
ARL14EP (ARF like GTPase 14 effector protein),6,0.09,-0.015,inactive
DNASE1 (deoxyribonuclease 1),1,-1.41,-0.43,active
DNASE1 (deoxyribonuclease 1),2,-0.45,-0.43,inactive
DNASE1 (deoxyribonuclease 1),3,0.63,-0.43,inactive
DNASE1 (deoxyribonuclease 1),4,-0.41,-0.43,inactive
DNASE1 (deoxyribonuclease 1),5,-0.81,-0.43,inactive
DNASE1 (deoxyribonuclease 1),6,0.02,-0.43,inactive
"LIPE (lipase E, hormone sensitive type)",1,-1.19,-0.275,active
"LIPE (lipase E, hormone sensitive type)",2,-0.28,-0.275,inactive
"LIPE (lipase E, hormone sensitive type)",3,-0.27,-0.275,inactive
"LIPE (lipase E, hormone sensitive type)",4,1.56,-0.275,active
"LIPE (lipase E, hormone sensitive type)",5,-0.06,-0.275,inactive
"LIPE (lipase E, hormone sensitive type)",6,-0.88,-0.275,inactive
SOX15 (SRY-box transcription factor 15),1,1.55,0.055,active
SOX15 (SRY-box transcription factor 15),2,-1.1,0.055,active
SOX15 (SRY-box transcription factor 15),3,0.04,0.055,inactive
SOX15 (SRY-box transcription factor 15),4,-0.31,0.055,inactive
SOX15 (SRY-box transcription factor 15),5,0.07,0.055,inactive
SOX15 (SRY-box transcription factor 15),6,1.59,0.055,active
PHF5A (PHD finger protein 5A),1,-0.5,-0.415,inactive
PHF5A (PHD finger protein 5A),2,-0.39,-0.415,inactive
PHF5A (PHD finger protein 5A),3,0.58,-0.415,inactive
PHF5A (PHD finger protein 5A),4,-0.44,-0.415,inactive
PHF5A (PHD finger protein 5A),5,-0.68,-0.415,inactive
PHF5A (PHD finger protein 5A),6,-0.09,-0.415,inactive
